Paper PMC3767597
No constants are given. Whether binding was seen depends on the method and setting. In cells and extracts the contact can be indirect. Some results given as binding are weak or reduced against the parent protein; the word gives no strength.

Sequences of proteins named here, by UniProt entry; tags and fusion partners are left off.
UniProt Q80U70: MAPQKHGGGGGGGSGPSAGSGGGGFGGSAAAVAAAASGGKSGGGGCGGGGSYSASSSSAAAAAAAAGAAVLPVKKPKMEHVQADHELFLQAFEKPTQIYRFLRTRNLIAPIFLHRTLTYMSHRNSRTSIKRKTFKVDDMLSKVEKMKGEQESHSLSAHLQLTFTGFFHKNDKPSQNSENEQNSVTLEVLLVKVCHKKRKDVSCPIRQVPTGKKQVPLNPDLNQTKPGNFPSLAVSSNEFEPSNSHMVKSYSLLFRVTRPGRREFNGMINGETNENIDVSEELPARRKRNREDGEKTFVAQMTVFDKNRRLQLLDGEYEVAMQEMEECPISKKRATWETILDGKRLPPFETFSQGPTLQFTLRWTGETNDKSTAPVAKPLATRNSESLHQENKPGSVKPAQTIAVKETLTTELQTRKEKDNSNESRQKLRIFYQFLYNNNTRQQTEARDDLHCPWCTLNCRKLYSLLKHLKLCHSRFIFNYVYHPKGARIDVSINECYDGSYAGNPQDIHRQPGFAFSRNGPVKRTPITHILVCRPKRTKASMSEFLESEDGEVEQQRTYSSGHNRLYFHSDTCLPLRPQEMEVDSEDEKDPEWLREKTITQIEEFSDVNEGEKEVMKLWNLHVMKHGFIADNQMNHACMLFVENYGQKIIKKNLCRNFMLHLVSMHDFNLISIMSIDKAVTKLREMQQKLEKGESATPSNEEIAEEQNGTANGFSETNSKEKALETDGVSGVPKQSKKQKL
UniProt Q921E6: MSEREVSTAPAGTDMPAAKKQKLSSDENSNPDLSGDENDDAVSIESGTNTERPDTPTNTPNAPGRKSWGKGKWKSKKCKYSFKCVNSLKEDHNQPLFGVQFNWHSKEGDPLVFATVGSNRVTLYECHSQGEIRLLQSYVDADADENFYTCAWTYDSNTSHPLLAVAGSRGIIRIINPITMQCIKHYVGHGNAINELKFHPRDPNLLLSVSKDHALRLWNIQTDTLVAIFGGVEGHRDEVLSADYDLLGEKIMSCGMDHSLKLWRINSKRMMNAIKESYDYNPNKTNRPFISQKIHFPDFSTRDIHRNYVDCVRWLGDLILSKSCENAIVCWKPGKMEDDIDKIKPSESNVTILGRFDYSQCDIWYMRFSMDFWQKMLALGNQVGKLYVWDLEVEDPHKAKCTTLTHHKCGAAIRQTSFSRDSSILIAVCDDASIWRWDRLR
UniProt Q61188: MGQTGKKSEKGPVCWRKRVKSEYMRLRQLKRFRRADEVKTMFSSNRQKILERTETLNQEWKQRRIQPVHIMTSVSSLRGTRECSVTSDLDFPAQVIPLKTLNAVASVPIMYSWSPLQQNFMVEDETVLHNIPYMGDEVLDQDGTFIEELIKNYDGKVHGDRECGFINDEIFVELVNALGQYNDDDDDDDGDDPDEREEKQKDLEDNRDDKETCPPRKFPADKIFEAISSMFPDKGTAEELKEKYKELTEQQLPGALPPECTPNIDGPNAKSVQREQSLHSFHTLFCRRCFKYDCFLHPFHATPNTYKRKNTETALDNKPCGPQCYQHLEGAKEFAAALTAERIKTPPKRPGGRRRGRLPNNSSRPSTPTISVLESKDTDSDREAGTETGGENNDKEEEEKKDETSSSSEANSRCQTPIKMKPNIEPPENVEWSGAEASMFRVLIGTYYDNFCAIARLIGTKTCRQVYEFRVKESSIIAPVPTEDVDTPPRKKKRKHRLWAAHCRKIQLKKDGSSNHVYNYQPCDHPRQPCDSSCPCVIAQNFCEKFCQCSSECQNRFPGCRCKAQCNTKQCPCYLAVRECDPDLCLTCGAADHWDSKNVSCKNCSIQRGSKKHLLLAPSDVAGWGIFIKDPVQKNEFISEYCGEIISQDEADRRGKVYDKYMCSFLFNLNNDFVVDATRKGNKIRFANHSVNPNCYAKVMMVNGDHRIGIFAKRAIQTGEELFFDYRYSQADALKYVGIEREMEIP

What was measured:
[1] = molecular target: SUZ12 (mouse (endogenous in heart)) (UniProt Q80U70); test: co-IP; nuclear pellet of homogenized whole mouse hearts (wild-type; for the PRC2 subunits also Asxl2 -/-) extracted in high salt buffer (50mM HEPES, 300mM NaCl, 10mM NaF, 1mM EDTA, 1% Triton-X, 1mM Na3VO4); IP with antibodies against the protein of interest and Dynabeads Protein G; mock IP with pre-immune serum; Western blot
[2] = molecular target: T1, Additional sex combs-like 2 (ASXL2) (mouse (endogenous in heart)) (UniProt Q8BZ32); test: as above
T1 sequence: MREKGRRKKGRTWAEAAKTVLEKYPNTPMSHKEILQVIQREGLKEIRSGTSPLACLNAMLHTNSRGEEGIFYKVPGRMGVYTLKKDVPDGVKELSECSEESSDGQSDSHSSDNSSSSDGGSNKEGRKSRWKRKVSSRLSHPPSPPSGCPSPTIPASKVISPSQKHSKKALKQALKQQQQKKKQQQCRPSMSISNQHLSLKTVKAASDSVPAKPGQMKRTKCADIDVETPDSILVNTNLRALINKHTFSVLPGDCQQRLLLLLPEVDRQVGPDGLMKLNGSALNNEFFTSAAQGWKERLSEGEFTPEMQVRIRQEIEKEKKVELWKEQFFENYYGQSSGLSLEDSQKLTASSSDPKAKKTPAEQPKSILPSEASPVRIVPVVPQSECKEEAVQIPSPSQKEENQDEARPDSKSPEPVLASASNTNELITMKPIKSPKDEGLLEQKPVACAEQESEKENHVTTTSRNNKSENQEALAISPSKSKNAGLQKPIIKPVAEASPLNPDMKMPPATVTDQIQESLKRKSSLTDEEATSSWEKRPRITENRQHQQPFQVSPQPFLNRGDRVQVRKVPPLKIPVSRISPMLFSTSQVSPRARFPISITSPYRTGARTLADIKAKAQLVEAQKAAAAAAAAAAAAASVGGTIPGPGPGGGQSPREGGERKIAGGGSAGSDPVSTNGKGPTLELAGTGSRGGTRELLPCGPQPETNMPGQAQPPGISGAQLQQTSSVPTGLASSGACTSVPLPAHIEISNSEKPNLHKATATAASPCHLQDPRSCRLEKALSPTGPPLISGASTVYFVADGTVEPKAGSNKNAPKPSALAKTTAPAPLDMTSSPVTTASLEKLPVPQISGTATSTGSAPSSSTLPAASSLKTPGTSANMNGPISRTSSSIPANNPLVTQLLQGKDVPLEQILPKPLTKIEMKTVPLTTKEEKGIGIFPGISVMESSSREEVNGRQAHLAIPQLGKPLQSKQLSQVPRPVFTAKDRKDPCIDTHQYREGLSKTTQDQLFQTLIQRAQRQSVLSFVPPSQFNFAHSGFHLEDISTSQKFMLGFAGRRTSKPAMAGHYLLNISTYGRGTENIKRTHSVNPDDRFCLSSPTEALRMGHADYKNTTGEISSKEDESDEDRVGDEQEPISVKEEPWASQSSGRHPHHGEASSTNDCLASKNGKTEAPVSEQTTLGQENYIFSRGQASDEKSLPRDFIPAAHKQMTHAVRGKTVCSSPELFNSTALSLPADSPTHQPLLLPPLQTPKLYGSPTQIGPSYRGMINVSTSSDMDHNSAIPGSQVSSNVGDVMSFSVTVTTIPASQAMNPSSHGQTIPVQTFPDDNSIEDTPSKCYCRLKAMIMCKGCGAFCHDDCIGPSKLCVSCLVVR

binding [1]	binding [2]	Substance
binds		EED (from UniProt Q921E6 1-441)
	binds	EZH2 (from UniProt Q61188 1-746)
	binds	SUZ12 (from UniProt Q80U70 1-741)
